# Laboratory results taken from patent publication US20210259981A1, “COMPOSITIONS AND METHODS OF TREATMENT” (Blueberry Therapeutics Limited, priority 2018, published 2021).
# At least one compound was matched to its structure with a doubt left.
# Legend:
# [1] = DLS particle size and polydispersity of API:Nanocin formulations; format: physicochemical; details: DLS report
# [2] = test system: IL-8 release, THP-1 cells; test: LPS-stimulated IL-8 release in THP-1 cells (inflammation assay); format: cell-based, human; details: dose range 0-30 ug/ml
smiles,measurement,setting,value
CO[C@H]1C[C@@H]2CC[C@@H](C)[C@@](O)(O2)C(=O)C(=O)N2CCCC[C@H]2C(=O)O[C@H]([C@H](C)C[C@@H]2CC[C@@H](O)[C@H](OC)C2)CC(=O)[C@H](C)/C=C(\C)[C@@H](O)[C@@H](OC)C(=O)[C@H](C)C[C@H](C)/C=C/C=C/C=C/1C [Rapamycin],polydispersity index as reported on the DLS (in words),[1],high
same,potency at inhibiting the LPS inflammatory response (in words),[2],more potent than Ibuprofen
